Source: PubChem BioAssay AID504791 (Drosophila RNAi Screening Center, 2011)
The deposit covers about 23,000 reagents; below is a random part of those that have a named target and a result. In the full data, 199 (0.86%) got an active call. 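Plate-scaled ratios behind the calls are not deposited; printed light signals are raw; many rows marked increased or decreased are still called inactive.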 A plus sign joins genes that one reagent is predicted to hit. The record does not give: the direction of the score.

Purpose: 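Genes whose knock-down strengthens or weakens small-RNA reporter silencing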 (primary screen)
System: Drosophila S2-derived reporter cells
Reagents: long dsRNA against Drosophila genes, about 150-250 ng dsRNA per well (siRNA assay); about 80-120 ng (miRNA assay)
Timing: about 5 days (siRNA assay); about 4 days (miRNA assay)
Treatment: copper sulfate induction of reporters: 25 µM (siRNA assay); 200 mM stated (miRNA assay), 1-2 days before reading
Detection: 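Per-well ratio of Renilla over firefly light, expressed relative to that plate's average ratio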
Units: stable assay Renilla, run 1 in luminescence; stable assay firefly, run 1 in luminescence
Active means: 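a well was a first-pass pick when its plate-scaled ratio rose above 1.5 (siRNA assay) or 1.6 (miRNA assay), or dropped below 0.6; a gene counted only if two separate dsRNAs agreed on retest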

target | dsRNA | stable siRNA reporter change | stable assay Renilla, run 1 | stable assay firefly, run 1 | activity call
Tmtc1 (GeneID 33455) | DRSC00147 | – | 4684 | 3.03e5 | inactive
Tmtc1 (GeneID 33455) | DRSC00151 | – | 5671 | 4.33e5 | inactive
Tmtc1 (GeneID 33455) | DRSC00314 | – | 6763 | 3.87e5 | inactive
Tmtc1 (GeneID 33455) | DRSC00411 | – | 7048 | 4.73e5 | inactive
CG9356 (GeneID 41122) | DRSC16476 | – | 7895 | 3.65e5 | inactive
CG8746 (GeneID 35867) | DRSC07257 | – | 7683 | 3.19e5 | inactive
PGRP-LA (GeneID 39062) | DRSC10327 | – | 5736 | 4.78e5 | inactive
PGRP-LA (GeneID 39062) | DRSC10414 | – | 6503 | 4.50e5 | inactive
CG13566 (GeneID 37813) | DRSC04203 | – | 5068 | 3.15e5 | inactive
Hakai (GeneID 35256) | DRSC02031 | – | 8826 | 2.15e6 | inactive
CG17239 (GeneID 59224) | DRSC00492 | – | 7294 | 3.69e5 | inactive
syd (GeneID 43905) | DRSC10963 | – | 7075 | 2.91e5 | inactive
CG7366 (GeneID 38918) | DRSC10825 | – | 5480 | 5.47e5 | inactive
CG11099 (GeneID 37282) | DRSC06034 | – | 7427 | 4.33e5 | inactive
Membrin (GeneID 38614) | DRSC10448 | – | 5938 | 3.27e5 | inactive
CG8119 (GeneID 32500) | DRSC20083 | – | 5814 | 4.00e5 | inactive
CG4733 (GeneID 42368) | DRSC15634 | – | 7646 | 3.64e5 | inactive
CG14645 (GeneID 50160) | DRSC12231 | – | 7087 | 3.74e5 | inactive
CG2861 (GeneID 31414) | DRSC18229 | – | 6434 | 3.26e5 | inactive
CG15548 (GeneID 43667) | DRSC15086 | – | 6754 | 3.30e5 | inactive
kmr (GeneID 5740131) | DRSC12986 | – | 4580 | 4.03e5 | inactive
kmr (GeneID 5740131) | DRSC14827 | – | 7702 | 4.21e5 | inactive
kmr (GeneID 5740131) | DRSC14828 | – | 7797 | 4.60e5 | inactive
kmr (GeneID 5740131) | DRSC16472 | – | 7714 | 5.48e5 | inactive
mod (GeneID 43764) | DRSC16999 | – | 8462 | 4.48e5 | inactive
CG46298 (GeneID 36091) | DRSC06222 | – | 7076 | 3.31e5 | inactive
CG6435 (GeneID 36894) | DRSC06987 | – | 7199 | 6.08e5 | inactive
Cpr (GeneID 33883) | DRSC03293 | – | 10846 | 8.78e5 | inactive
Ptp52F (GeneID 36790) | DRSC06717 | – | 6466 | 3.76e5 | inactive
CG40045 (GeneID 3355079) | DRSC21232 | – | 4851 | 3.20e5 | inactive
CG6271 (GeneID 43252) | DRSC16006 | – | 9253 | 3.52e5 | inactive
CG11964 (GeneID 41068) | DRSC14447 | – | 11563 | 4.94e5 | inactive
Jon65Aiv (GeneID 38682) | DRSC10644 | – | 6658 | 5.42e5 | inactive
PGRP-LC (GeneID 39063) | DRSC08980 | – | 4923 | 3.10e5 | inactive
PGRP-LC (GeneID 39063) | DRSC10416 | – | 5838 | 5.25e5 | inactive
PGRP-LC (GeneID 39063) | DRSC10417 | – | 5895 | 5.74e5 | inactive
CG3793 (GeneID 34928) | DRSC01982 | – | 62822 | 1.45e6 | inactive
sm (GeneID 37254) | DRSC05795 | – | 6036 | 4.89e5 | inactive
sm (GeneID 37254) | DRSC07686 | – | 8752 | 2.97e5 | inactive
CG13018 (GeneID 50224) | DRSC06274 | – | 6211 | 4.03e5 | inactive
Naa40 (GeneID 43500) | DRSC16265 | – | 6491 | 3.73e5 | inactive
CG14471 (retired record) (GeneID 35525) | DRSC04865 | – | 11287 | 1.36e6 | inactive
Ptp61F (GeneID 38160) | DRSC08683 | – | 8972 | 4.52e5 | inactive
Pop4 (GeneID 38889) | DRSC10955 | – | 5275 | 2.89e5 | inactive
CG5390 (GeneID 34383) | DRSC02855 | – | 7396 | 3.88e5 | inactive
Elp3 (GeneID 33649) | DRSC00448 | – | 8214 | 3.62e5 | inactive
CG32485 (GeneID 38363) | DRSC22666 | – | 4203 | 4.05e5 | inactive
CG31797 (GeneID 35203) | DRSC02476 | – | 7575 | 3.84e5 | inactive
CG31797 (GeneID 35203) | DRSC02477 | – | 7214 | 4.31e5 | inactive
Nse4 (GeneID 34434) | DRSC02239 | – | 5003 | 4.04e5 | inactive
Sam-S (GeneID 48552) | DRSC00758 | – | 11226 | 7.76e5 | inactive
LysD + LysC (retired record) | DRSC08674 | – | 6312 | 4.28e5 | inactive
LysD + LysC (retired record) | DRSC22743 | reporter ratio lowered past the hit cutoff | 1964 | 3.05e5 | inactive
CG17572 (GeneID 35182) | DRSC02629 | – | 7430 | 4.78e5 | inactive
CG15044 (GeneID 32834) | DRSC19620 | – | 5179 | 5.11e5 | inactive
CG15044 (GeneID 32834) | DRSC21385 | – | 9232 | 3.92e5 | inactive
LIMK1 (GeneID 32207) | DRSC19811 | – | 7099 | 2.99e5 | inactive

2 entries from above, limited to “stable assay Renilla, run 1”.
Ptp61F (GeneID 38160) [DRSC08683]	8972
Pop4 (GeneID 38889) [DRSC10955]	5275
